The exact form of at least one protein or probe is not confirmed. Results from cells or extracts need not show a direct contact. For some assays here: Negatives hold for the conditions tested. For some assays here: A weaker result is weaker than the reference pair of the same experiment. For some assays here: At least one verdict was read from the data and is not stated in words by the source.

In series [1] the test system is LBC (Large Boundary Complex, ~1000 kD, contains GAF, Clamp, Mod(mdg4)). The series is described as follows: competition with a labelled probe. The note with it: 20 ul, nuclear extract from 6-18 hr embryos (1-3 ul), ~10 fmol/ul probe stock, 0.1-0.25 mg/ml poly(dA-dT):poly(dA-dT), 30 min at room temperature, gel at 4 C, protein in an extract.
Series [2] has the same test system. Kind of series: EMSA. The note with it: 20 ul, nuclear extract from 6-18 hr embryos (1-3 ul), ~10 fmol/ul probe stock, 0.1-0.25 mg/ml poly(dA-dT):poly(dA-dT), 30 min at room temperature, gel at 4 C, protein in an extract.
In a further series the test system is GAF + Clamp + Mod(mdg4). The series is described as follows: EMSA supershift. Particulars: gel filtration fractions 45 and 47, GAF and Mod(mdg4) antibodies supershift, Clamp antibody inhibits; 20 ul, nuclear extract from 6-18 hr embryos (1-3 ul), ~10 fmol/ul probe stock, 0.1-0.25 mg/ml poly(dA-dT):poly(dA-dT), 30 min at room temperature; gel at 4 C; protein in an extract; label: 5'-32P (unlabeled as competitor).

The mark [3] stands for this setting: fold weaker than G3+4, label: 5'-32P.
Where [4] appears, read: 25x-100x cold against labeled HS3, label: 5'-32P (unlabeled as competitor).

In the case of “ACAATTGCCAAATAATACAGATCGATTTAGAGCGAGATGACAATAGAGAGGCGATCTCTCTCGTATACGAGTCTTGAAAAGAAAGAGAAGGCGAACGGTGCTGGCTTAGAGAGAGATGGCAATACTAATTAACTGCAAATACATTTCCGCCATTTTGTTGGCGCTAAAAGTAACGGAAATTCGAGATGCTTTTAGGGCTG (double strand) [CES roX2]”, in series [1] (25x-100x cold against labeled HS3, label: none (competitor)), the binding result is on record as “binds”.

For “ACCCTCTATCACCGTGAACAGGTGCAGTAGTAAATATAAGCAAAACAAATTGGAAAGAGTATTGGCTAAGAGCGACCGCTCACTAACACATAGATAAATTAAACAAAACGTGATAAGAGAACCGCACGCACACCACCGCAAAATCCAATTGGAAACAAACGACTGCTTGAATGTATTGGTAAGCAAACAAACGGCTAGGTTTGATGGTTTGATTGGAATTCAGTTGCCGTTCG (double strand) [dHS1 GAGAmut3-6]”, the binding result in series [2] (binding largely abrogated, label: 5'-32P) is on record as “binds more weakly”.

In the case of “ATTGGCTAAGAGCGTCCGCTCACTAACACATAGATAAATTAAGAGAGACGTGATAAGAGAACCGC (double strand) [G4 (GAGA4)]”, the binding result in series [2] (setting [3]) is recorded as “binds more weakly”.

In the case of “CAAAGAGCGACACGTGAACAGGTGCAGTAGTAAATATAAGCAAAGAGAGTTGGAAAGAGTATTGG (double strand) [G3 (GAGA3)]”, the binding result in series [2] (setting [3]) was “binds more weakly”.

As for “CAAAGAGCGACACGTGAACAGGTGCAGTAGTAAATATAAGCAAAGAGAGTTGGAAAGAGTATTGGCTAAGAGCGTCCGCTCACTAACACATAGATAAATTAAGAGAGACGTGATAAGAGAACCGCACGCACACC (double strand) [G3+4 (GAGA3+4)]”, the binding result in series [2] (relative to G3 and G4 65 bp probes (higher affinity), binding and competition, label: 5'-32P (unlabeled as competitor)) is on record as “binds”; in series [1] (10x-100x cold G3+4 against labeled G3+4, label: 5'-32P (unlabeled as competitor)) it was “binds”; in series [1] (setting [4]) it was “binds”.

Regarding “CAAAGAGCGACACGTGAACAGGTGCAGTAGTAAATATAAGCAAAGAGAGTTGGAAAGAGTATTGGCTAAGAGCGTCCGCTCACTAACACATAGATAAATTAAGAGAGACGTGATAAGAGAACCGCACGCACACCACCGCAAAATCCAATTGGAAGAGAGCGACTGCTTGAGTGTATTGGTTAGCAAGAGAGCGGCTAAGGTTTGATGGTTTGATTGGAATTCAGTTGCCGTTCG (double strand) [dHS1]”, in series [2] (label: 5'-32P), the binding result is on record as “binds”.

Take “CAAAGAGCGACACGTGAACAGGTGCAGTAGTAAATATAAGCAAAGAGAGTTGGAAAGAGTATTGGGGCACCCCAGGCTTTACACTTTATGCTTCCGGCTCGTATGTTGTGTGGAATTGTGAGCGGATAACAATTTCACA (double strand) [G3+LacZ]”: the binding result in series [1] (10x-100x cold against labeled G3+4, poor competitor, label: none (competitor)) is on record as “binds more weakly”.

As to “CAGACGACGTCGCAGGTGAGTGGCGAGCAGAGCAGCATGGAGCGAGCATGGCCGCTGTGGAATACCGCACTGTCGTAGGCACGAGCGCGAGCGAGAGAGGCCAAGAGCACGCTCTCTTTCACATCCATGATGGCTGCCGCTGTCTCGCCTCTTCTTCTTCATTTTCAGCTCGGCCATCATGGGGCTCCATTAAATCCACT (double strand) [HS3]”, the binding result (in series [2] (label: 5'-32P (unlabeled as competitor)); in the series with GAF + Clamp + Mod(mdg4); in series [1] (setting [4])) was “binds” each time.

Turning to “CAGACGACGTCGCAGGTGAGTGGCGAGCAGAGCAGCATGGAGCGAGCATGGCCGCTGTGGAATACCGCACTGTCGTAGGCACGAGCGCGAGCTTTTTAGGCCAAGAGCACGTTTTTTTTCACATCCATGATGGCTGCCGCTGTCTCGCCTCTTCTTCTTCATTTTCAGCTCGGCCATCATGGGGCTCCATTAAATCCACT (double strand) [HS3mGAF]”, the binding result in series [2] (LBC shift abrogated, label: 5'-32P (unlabeled as competitor)) is “no binding”; in series [1] (25x-100x cold against labeled HS3, poor competitor, label: 5'-32P (unlabeled as competitor)), “binds more weakly”.

With “CAGACGACGTCGCAGGTGAGTGGCGAGCAGAGCAGCATGGAGCGAGCCGTACCGCTGTGGAATACCGCACTGTCGTAGGCACGAGCGCGAGCGAGAGAGGCCAAGAGCACGCTCTCTTTCACATCCATGCGTACTGCCGCTGTCTCGCCTCTTCTTCTTCATTTTCAGCTCGGTACGCATGGGGCTCCATTAAATCCACT (double strand) [HS3mPho]”, the binding result in series [2] (Pho mutations have no effect, label: 5'-32P (unlabeled as competitor)) was “binds”; in series [1] (25x-100x cold against labeled HS3, competes as well as wild type, label: 5'-32P (unlabeled as competitor)), “binds”.

Consider “GTGGAATACCGCACTGTCGTAGGCACGAGCGCGAGCGAGAGAGGCCAAGAGCACGCTCTCTTTCACATCCATGATGGCTGCCGCTGTCTCGCCTCTTCTT (double strand) [HS3 probe #2]”, for which the binding result in series [2] (slow shift resembling LBC, identity confirmed only with 200 bp HS3, label: 5'-32P) is listed as “binds”.

The values above are taken from article PMC6110506.
